Measurements taken from patent publication US20130012466A1 (priority 2006, published 2013).
Some results were stated once for a whole list of compounds, not compound by compound.

tested on: nine human cancer cell lines and one normal mouse control cell line; experiment: Cytotoxicity screen across the whole cell line panel; type: cell-based; conditions: at least one cell line of the panel; 10 μM is the non-toxic threshold

Row | Compound | IC50 [nM]
1 | 2-deoxy-D-galactoside [Col6] | < 1000
2 | 2-deoxy-L-riboside [Col19] | < 1000
3 | 6-deoxy-6-acyl-D-galactoside [Col56] | < 1000
4 | D-glucorono-6,3-lactonide [Col45] | < 1000

tested on: MB-MDA-231 cells; experiment: Wound healing assay (cell migration); type: cell-based, human; conditions: wound healing assay at sub-toxic concentration (the IC10)

Row | Compound | inhibition of migration of MB-MDA-231 cells
5 | 6-deoxy-6-acyl-D-galactoside [Col56] | at least 50%
6 | COc1cc2c(c(OC)c1OC)-c1ccc(OC)c(=O)cc1[C@@H](NC(=O)CN(OC)[C@@H]1O[C@H](C(=O)O)[C@H](O)[C@H](O)[C@H]1O)CC2 [Col18, D-Galacturonoside] | at least 50%
